# According to the supplement of paper PMC11006884:
# By UniProt entry, the sequences of proteins in these tests, tags left out. Where a name states a change or a piece, a line headed by the entry shows the natural chain unless it says otherwise.
# UniProt Q9NY12: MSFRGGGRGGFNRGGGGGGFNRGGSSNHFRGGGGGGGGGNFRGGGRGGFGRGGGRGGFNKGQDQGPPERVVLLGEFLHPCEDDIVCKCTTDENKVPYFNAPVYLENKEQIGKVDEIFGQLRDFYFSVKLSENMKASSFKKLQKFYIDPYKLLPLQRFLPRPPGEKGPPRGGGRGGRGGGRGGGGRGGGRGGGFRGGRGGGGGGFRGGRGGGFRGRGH
# UniProt Q9UBV8: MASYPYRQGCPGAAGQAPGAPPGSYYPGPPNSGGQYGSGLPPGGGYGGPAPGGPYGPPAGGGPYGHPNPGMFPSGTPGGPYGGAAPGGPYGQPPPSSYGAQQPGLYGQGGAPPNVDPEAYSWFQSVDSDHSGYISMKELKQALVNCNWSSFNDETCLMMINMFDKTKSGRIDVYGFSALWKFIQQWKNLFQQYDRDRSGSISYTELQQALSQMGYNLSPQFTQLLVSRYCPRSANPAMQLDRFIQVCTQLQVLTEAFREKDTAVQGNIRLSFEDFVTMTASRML
# UniProt Q9NV96: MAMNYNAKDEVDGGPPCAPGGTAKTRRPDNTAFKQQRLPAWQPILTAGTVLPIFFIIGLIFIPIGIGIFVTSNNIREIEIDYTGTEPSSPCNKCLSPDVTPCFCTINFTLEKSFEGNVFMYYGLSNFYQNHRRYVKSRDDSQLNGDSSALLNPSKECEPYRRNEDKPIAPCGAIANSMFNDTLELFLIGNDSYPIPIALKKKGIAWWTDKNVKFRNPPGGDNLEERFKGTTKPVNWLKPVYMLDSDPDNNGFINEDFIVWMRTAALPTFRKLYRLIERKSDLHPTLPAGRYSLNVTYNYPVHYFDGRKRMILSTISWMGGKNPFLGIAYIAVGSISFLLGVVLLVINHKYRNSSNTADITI
# UniProt Q9P2J5: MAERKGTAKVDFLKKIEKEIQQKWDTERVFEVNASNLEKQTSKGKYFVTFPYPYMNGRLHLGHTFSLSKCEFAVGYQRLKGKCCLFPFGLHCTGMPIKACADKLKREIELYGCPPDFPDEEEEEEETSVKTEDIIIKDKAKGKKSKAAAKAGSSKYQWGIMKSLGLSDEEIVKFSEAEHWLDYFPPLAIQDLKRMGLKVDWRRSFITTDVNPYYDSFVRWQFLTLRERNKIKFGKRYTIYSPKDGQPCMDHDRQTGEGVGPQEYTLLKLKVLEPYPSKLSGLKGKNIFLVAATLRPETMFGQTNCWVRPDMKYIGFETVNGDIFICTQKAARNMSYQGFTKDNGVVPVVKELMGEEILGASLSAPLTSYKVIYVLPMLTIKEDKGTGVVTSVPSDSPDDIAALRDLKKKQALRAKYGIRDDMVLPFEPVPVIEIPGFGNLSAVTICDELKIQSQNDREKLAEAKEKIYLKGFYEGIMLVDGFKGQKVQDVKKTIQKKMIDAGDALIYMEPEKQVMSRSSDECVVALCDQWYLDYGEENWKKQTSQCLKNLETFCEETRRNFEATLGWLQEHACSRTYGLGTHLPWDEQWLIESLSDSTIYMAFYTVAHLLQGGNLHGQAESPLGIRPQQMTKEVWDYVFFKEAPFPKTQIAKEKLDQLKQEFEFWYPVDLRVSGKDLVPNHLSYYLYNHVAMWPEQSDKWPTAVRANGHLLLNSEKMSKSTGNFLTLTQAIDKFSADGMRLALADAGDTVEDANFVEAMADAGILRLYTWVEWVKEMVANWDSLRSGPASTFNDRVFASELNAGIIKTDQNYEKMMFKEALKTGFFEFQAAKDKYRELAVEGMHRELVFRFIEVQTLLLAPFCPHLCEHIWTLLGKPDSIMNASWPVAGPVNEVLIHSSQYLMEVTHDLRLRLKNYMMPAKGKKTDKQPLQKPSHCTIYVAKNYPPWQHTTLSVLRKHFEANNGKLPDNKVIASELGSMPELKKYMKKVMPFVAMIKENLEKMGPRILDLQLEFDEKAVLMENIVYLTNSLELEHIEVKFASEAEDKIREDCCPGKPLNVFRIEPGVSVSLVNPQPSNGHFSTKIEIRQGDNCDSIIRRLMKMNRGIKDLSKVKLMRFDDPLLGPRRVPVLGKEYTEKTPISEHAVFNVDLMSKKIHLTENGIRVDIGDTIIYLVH
# UniProt Q9UEG4: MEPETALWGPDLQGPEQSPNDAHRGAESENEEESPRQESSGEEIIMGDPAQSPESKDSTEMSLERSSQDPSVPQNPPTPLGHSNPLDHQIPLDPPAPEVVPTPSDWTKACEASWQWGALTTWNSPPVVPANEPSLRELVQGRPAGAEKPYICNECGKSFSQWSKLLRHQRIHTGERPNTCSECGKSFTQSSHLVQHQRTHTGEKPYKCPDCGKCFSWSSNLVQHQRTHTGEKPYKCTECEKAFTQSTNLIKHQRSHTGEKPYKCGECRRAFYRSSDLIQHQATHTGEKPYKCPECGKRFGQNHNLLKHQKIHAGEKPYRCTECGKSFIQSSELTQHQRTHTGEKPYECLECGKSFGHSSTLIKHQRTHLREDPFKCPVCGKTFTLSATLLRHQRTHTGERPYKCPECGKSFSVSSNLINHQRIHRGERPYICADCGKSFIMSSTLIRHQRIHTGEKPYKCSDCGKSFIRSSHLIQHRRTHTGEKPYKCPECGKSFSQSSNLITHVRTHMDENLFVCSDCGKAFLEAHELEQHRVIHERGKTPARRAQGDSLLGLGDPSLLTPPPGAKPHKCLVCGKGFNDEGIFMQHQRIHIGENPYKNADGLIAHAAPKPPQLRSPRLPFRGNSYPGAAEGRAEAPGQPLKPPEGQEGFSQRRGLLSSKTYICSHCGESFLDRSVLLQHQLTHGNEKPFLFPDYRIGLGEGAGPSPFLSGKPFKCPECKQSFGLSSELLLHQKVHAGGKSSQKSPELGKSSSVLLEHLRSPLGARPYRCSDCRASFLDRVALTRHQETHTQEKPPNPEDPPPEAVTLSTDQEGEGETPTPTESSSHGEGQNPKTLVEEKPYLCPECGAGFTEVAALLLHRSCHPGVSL
# UniProt Q9P2R3: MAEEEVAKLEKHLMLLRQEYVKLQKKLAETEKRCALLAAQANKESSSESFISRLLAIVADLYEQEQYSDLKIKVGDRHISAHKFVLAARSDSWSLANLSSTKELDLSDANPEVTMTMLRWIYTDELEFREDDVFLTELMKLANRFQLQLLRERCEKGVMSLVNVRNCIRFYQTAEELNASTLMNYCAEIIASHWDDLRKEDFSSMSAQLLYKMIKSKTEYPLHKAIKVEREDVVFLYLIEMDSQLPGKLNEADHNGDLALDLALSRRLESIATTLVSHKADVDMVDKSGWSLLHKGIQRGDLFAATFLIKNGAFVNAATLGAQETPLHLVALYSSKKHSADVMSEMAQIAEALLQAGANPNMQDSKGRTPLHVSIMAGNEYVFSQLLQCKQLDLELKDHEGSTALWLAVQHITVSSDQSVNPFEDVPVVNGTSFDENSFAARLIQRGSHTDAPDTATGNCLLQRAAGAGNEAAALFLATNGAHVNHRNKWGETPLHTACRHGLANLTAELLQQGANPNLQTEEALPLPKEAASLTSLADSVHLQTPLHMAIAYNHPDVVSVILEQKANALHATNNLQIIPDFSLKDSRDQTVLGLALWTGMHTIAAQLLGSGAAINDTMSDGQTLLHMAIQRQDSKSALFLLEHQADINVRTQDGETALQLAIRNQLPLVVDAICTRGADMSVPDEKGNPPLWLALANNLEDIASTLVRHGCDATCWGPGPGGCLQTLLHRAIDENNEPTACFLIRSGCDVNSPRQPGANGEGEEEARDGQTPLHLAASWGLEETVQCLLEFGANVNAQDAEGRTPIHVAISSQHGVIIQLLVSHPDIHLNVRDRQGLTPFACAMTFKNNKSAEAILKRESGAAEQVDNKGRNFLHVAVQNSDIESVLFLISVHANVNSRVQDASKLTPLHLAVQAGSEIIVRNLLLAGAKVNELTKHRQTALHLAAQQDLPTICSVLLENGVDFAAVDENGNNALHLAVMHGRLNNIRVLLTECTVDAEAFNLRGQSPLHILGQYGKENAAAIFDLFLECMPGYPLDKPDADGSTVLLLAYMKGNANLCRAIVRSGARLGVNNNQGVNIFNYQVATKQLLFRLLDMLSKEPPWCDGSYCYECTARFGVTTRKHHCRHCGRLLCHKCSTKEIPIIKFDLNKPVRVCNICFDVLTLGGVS
# UniProt Q9UBT2: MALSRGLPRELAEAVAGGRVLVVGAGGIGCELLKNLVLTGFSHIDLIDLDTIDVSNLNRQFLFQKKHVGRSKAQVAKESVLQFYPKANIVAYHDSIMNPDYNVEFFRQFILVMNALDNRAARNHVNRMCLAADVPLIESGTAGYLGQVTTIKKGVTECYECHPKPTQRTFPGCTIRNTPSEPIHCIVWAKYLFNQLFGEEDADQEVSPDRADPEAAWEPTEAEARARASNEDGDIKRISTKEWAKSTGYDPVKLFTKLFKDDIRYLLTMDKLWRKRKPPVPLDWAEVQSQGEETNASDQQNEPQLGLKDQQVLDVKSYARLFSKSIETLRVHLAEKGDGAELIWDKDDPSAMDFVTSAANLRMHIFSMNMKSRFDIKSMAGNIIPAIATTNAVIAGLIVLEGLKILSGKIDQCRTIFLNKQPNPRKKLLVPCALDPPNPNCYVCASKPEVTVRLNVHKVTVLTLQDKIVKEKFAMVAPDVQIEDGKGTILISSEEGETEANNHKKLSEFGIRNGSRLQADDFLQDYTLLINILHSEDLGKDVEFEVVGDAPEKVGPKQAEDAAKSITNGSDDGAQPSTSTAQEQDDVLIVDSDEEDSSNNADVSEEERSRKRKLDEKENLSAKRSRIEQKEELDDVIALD
# UniProt Q9NW64: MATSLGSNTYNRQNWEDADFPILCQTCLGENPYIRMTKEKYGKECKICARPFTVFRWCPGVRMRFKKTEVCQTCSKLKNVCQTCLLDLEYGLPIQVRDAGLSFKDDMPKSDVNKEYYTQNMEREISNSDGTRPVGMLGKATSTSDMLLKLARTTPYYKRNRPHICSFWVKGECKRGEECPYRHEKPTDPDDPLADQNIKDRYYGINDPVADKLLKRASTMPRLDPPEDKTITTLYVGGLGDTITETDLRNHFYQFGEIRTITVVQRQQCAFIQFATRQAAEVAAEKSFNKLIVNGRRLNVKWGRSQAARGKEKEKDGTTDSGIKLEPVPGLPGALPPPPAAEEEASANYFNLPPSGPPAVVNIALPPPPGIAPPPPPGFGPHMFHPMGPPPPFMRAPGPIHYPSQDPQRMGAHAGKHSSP
# UniProt Q9NYH9: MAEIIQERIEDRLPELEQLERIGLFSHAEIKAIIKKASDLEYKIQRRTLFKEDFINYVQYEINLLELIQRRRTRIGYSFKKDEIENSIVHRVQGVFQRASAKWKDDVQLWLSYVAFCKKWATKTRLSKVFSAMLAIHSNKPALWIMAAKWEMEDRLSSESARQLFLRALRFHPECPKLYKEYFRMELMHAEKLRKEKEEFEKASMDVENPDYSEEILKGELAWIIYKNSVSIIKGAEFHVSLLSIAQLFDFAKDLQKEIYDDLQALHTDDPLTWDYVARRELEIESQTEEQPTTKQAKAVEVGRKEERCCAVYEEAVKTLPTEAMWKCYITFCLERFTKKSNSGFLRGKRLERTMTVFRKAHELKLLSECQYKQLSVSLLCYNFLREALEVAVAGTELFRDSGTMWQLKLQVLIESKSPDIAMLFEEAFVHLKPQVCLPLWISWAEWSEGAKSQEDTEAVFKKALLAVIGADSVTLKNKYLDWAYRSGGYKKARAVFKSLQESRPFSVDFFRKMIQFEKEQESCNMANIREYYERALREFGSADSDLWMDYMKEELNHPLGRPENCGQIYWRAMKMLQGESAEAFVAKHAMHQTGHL
# UniProt Q9UBC2: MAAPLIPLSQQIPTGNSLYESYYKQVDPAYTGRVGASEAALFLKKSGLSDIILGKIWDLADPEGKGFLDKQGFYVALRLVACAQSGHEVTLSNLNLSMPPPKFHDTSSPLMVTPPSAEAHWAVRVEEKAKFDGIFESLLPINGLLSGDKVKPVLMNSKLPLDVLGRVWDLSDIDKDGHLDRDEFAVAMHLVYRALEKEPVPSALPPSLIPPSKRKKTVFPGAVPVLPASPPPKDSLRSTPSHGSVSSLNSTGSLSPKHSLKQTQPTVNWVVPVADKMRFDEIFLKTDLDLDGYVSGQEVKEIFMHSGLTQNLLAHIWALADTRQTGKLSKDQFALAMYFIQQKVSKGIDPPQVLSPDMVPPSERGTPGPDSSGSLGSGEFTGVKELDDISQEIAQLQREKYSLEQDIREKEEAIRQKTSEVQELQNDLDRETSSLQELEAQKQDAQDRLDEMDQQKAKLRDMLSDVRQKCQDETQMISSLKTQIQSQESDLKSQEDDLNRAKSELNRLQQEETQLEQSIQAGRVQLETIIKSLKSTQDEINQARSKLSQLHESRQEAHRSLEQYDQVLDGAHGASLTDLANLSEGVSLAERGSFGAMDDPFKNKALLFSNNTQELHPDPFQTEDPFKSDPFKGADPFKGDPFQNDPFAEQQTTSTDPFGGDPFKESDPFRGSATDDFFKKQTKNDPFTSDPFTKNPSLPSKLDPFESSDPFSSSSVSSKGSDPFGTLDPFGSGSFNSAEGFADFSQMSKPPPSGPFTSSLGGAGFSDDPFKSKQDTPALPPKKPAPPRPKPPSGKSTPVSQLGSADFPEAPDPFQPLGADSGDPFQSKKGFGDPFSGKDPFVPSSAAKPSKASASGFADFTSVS
# Shown are results outside the selection of targets with a hit, which stands elsewhere. This is a noisy data set. Only a part is listed here, and it is no random draw.
# Compound: COC(=O)/C=C/c1ccccc1 [methyl cinnamate]
# Assay: log2 ratio of iodoacetamide-alkyne labeling of the cysteine site, DMSO over compound (competition); higher = stronger covalent engagement of the cysteine by the compound, active = 1 or more
# Details: 500 µM; treatment time 1 h; system: HEK293T cell lysate
# In short: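 HEK293T lysate at 2 mg/mL was treated with vehicle or electrophile (500 µM) for 1 h at ambient temperature, then labelled with iodoacetamide alkyne (1 h), clicked to sCIP-TMT reagents, pooled, digested with trypsin overnight at 37 °C, enriched on streptavidin and eluted with acid. Peptides were analysed by Orbitrap Eclipse LC-MS/MS with FAIMS and quantified in FragPipe, using duplicate channels and three replicates, with cysteines quantified in only one replicate excluded. The log2 competition ratio for each cysteine is the mean control-channel reporter intensity divided by the mean compound-channel reporter intensity.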
row,Target,log2 ratio of iodoacetamide-alkyne labeling
1,RRBP1 C933 (UniProt Q9P2E9),inactive: 0.142
2,INTS10 C7 (UniProt Q9NVR2),inactive: 0.367
3,GAR1 C80 (UniProt Q9NY12),inactive: 0.0937
4,LIMD1 C305 (UniProt Q9UGP4),inactive: 0.268
5,PEF1 C230 (UniProt Q9UBV8),inactive: 0.0438
6,LIMD1 C374 (UniProt Q9UGP4),inactive: 0.354
7,UniProt Q9NUQ3_C101,inactive: 0.351
8,WWOX C382 (UniProt Q9NZC7),inactive: 0.289
9,VAPA C60 (UniProt Q9P0L0),inactive: -0.188
10,UniProt Q9NYV4_C1009,inactive: 0.305
11,FAM49B C10 (UniProt Q9NUQ9),inactive: 0.0684
12,TES C46 (UniProt Q9UGI8),inactive: -0.132
13,STK39 C525 (UniProt Q9UEW8),inactive: 0.37
14,TMOD3 C150 (UniProt Q9NYL9),inactive: 0.135
15,RRBP1 C1128 (UniProt Q9P2E9),inactive: 0.138
16,TMEM30A C17 (UniProt Q9NV96),inactive: 0.218
17,NCDN C3 (UniProt Q9UBB6),inactive: 0.397
18,GNL3L C518 (UniProt Q9NVN8),inactive: 0.335
19,LARS C100 (UniProt Q9P2J5),inactive: 0.317

# An excerpt from further up, as a working copy:
row,Target,log2 ratio of iodoacetamide-alkyne labeling
13,STK39 C525 (UniProt Q9UEW8),inactive: 0.37
14,TMOD3 C150 (UniProt Q9NYL9),inactive: 0.135

# The listing continues.

row,Target,log2 ratio of iodoacetamide-alkyne labeling
1,ARMCX3 C52 (UniProt Q9UH62),inactive: 0.619
2,FANCI C1085 (UniProt Q9NVI1),inactive: -0.0435
3,ZNF629 C110 (UniProt Q9UEG4),inactive: 0.0652
4,ANKFY1 C1159 (UniProt Q9P2R3),inactive: 0.144
5,MTCH1 C385 (UniProt Q9NZJ7),inactive: 0.0148
6,LRWD1 C88 (UniProt Q9UFC0),inactive: -0.0924
7,GNL3L C213 (UniProt Q9NVN8),inactive: 0.563
8,STK39 C237 (UniProt Q9UEW8),inactive: 0.0232
9,LARS C113 (UniProt Q9P2J5),inactive: 0.116
10,UBA2 C30 (UniProt Q9UBT2),inactive: 0.167
11,UniProt Q9NW64_C48,inactive: 0.0437
12,UniProt Q9NYL2_C285,inactive: 0.135
13,UTP6 C175 (UniProt Q9NYH9),inactive: 0.0176
14,EPS15L1 C470 (UniProt Q9UBC2),inactive: 0.1
15,BSDC1 C49 (UniProt Q9NW68),inactive: 0.0327
16,UCKL1 C317 (UniProt Q9NWZ5),inactive: -0.156
17,VPS18 C445 (UniProt Q9P253),inactive: -0.00352
18,RAI14 C110 (UniProt Q9P0K7),inactive: 0.206
